Screen size: about 52,000 sequences; about 210 (0.4%) were called active.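 How the source made its calls: active means gene whose silencing raises cell survival under the drug, median off-target-corrected z-score across its silencing RNAs 2 or more; inactive means the rest.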 Some of the results follow.

The nature of this experiment: Resistance to Poly (ADP-Ribose) Polymerase inhibitor: Gene Identification via Genome-wide siRNA Screen. The settings on record: mouse BRCA2 R2336H ES cells, olaparib, CellTiter-Glo viability; stronger effect = higher value. The gist of the method: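 Mouse BRCA2 R2336H ES cells were reverse-transfected with siRNA (20 nM final), treated at 48 h with 500 nM olaparib, and read by CellTiter-Glo after 72 h. Scores: MAD-based z per siRNA, median per gene, seed off-target correction.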
Consider GGAGCUUUUAAGAAUGUGGTT against Ireb2, for which the z-score was inactive: -1.34.

As for “GCUCUACCUCAGAUAAAGGTT against 4930517K23Rik”, the z-score is inactive: -0.066. In the case of “CGAAAUGGGAUUAAAACAATT against A830059I20Rik” it was inactive: -0.708; in that of GGCUGUGCAUACCAUGUUGTT against Sart2, inactive: 0.609; in that of “GGAUUGAGCUACAAGAAUATT against E330016A19Rik”, inactive: -0.0566. In the case of “CCUAAAGUCACAUCUAAGATT against D19Bwg1357e”, the z-score was inactive: 0.38. In the case of GCCCUUAGCUUGUGUUAUCTT against Hagh it was inactive: 2.45; in that of GGAUGUCUUAGAUGUUUACTT against Mcm7, inactive: -2.61.

Take “GGUUGCACUACCUUCAUAUTT against 4933426M11Rik”: the z-score is inactive: -2.05.

On to GGUUGUGGAACUAGAAUAUTT against Wdr12, for which the z-score was inactive: -1.25. In the case of CCACAGAUUCCAUGAUCCCTT against Gdap1l, the z-score was inactive: -0.786.

With GCUGGUACAAGGUGUUUGATT against Pqbp1, the z-score is inactive: 2.49. With GGCAUACACAGUCUUCAAUTT against Txk the figure was inactive: 0.46; with GAUGAUUGACGACAUGGAATT against Rgs9bp, inactive: 0.171; with “GCGAUUCUCCGUGAUGUACTT against 3300001H21Rik”, inactive: -0.419. In the case of GGCAGAUGCUAAAAAAGCUTT against Rnf128 it was inactive: -0.39; in that of GGGAAAAAUUUCUUCUGUUTT against Olfr918, inactive: -0.434. For the sequence GCUUUGAGUACUGACACGCTT against Gpr2, the z-score was inactive: 0.474. As to AAAGCUUAUAACCAUCAACTT against MGC58382, the z-score is inactive: 0.409.

GGACAUCACGCAAAUCGUGTT against Nmnat1: the z-score was inactive: 0.124.

With GGCAGCUUCAGGAACCAAUTT against Krt2-5, the z-score was inactive: -0.027. In the case of GGACUUGAUCCCAAAGCUGTT against Mrpl17, the z-score is inactive: 0.247. With GGUACAUCGACUUCCUGUATT against Twist1 the figure was inactive: -1.4; with GCUACAACUAGAACAAUUATT against Hook1, inactive: -2.36; with “CGUCACUGAUGUGGCUUUUTT against 4932443D16Rik”, inactive: -2.55. In the case of GGCUGAAAAAAGUGGAGAATT against Sh3bgr it was inactive: 0.438; in that of “GCCUUAUCCUGAGAAUGGCTT against 2900010D03Rik”, inactive: 0.26. In the case of “GGGCGGAAAACUAGACCUATT against 1500005I02Rik” it was inactive: 0.72.

Turning to GGCACUUCUUAAUCCCACATT against Nfe2, the z-score was inactive: 1.48. With GGAGAGGCAUCUUUUCCUATT against Arhgap20 the figure was inactive: 0.45; with GGUGACUCAUAUUCGGAUCTT against Hcph, inactive: 0.584. In the case of GGAAGUUUAAAGUCUAGAATT against Adcy7 it was inactive: 0.905; in that of GCCAAAGACUCUUAUAAGUTT against Bnc1, inactive: 0.697; in that of AGUUUAGGUCUACAGAUACTT against Ggnbp1, inactive: -0.369. As for GCCUAUACUGAUUUAUGAUTT against Tomm7, the z-score is inactive: -0.191. With GGAGACAUUCCUGAAAGCUTT against Ankrd2 the figure was inactive: -0.721; with GGAAAUGACCAGUCUGUUUTT against Zmym1, inactive: -0.296. In the case of GGAUUCUUGGAGCUCAUUATT against Stag3 it was inactive: -0.97; in that of GCUGAAUUCGAAGAACAAUTT against Bpil1, inactive: 0.796; in that of GGUCCCUAUGUUAUUGAUUTT against Spock2, inactive: -0.0692. On to GGUUGUGUUCAUGGAGAAGTT against Nfatc2, for which the z-score was inactive: -0.726. In the case of GGAGACAGAAAUGAGUUCATT against Slc34a2 it was inactive: -0.442; in that of GGUCUCGGGUCUGAUUUAATT against Foxa2, inactive: 0.601. In the case of “GGAAACUGAGUUAGAUGCATT against E330036I19Rik” it was inactive: -1.25; in that of “GGAGCUAAACCAAUGGCAATT against 2310047H23Rik”, inactive: 1.05. In the case of UCUUCUAUGGUUCAGGUGCTT against Olfr144 it was inactive: 0.165. Take GCAACAUGGCCCUUACCAUTT against Plcb2: the z-score was inactive: -0.797.

Regarding GGAGAAGUUUAGUGAAGAATT against AW061290, the z-score was inactive: -2.02. With GGGCCAAUUUAAGUAUAUCTT against Admr the figure was inactive: 0.738. In the case of GGACGGGAUACUUUAAAGATT against Shfdg1, the z-score was inactive: -2.68. GGAUGAAUGUCACAACUUCTT against Sema6a: the z-score was inactive: -0.937. In the case of GCCAUGUCUUCCUUCUCCATT against Sprr2g it was inactive: -0.243; in that of CCCUGUGAUCACUACAUGUTT against Traf7, inactive: -0.0623; in that of CGAUAUUGAUGAUCUAGUCTT against Jmjd2a, inactive: 0.853. With “GGCAAAGAUAAAAUGCUGATT against 2810417H13Rik” the figure was inactive: 0.869; with “CCACUACUACUGGUAUGCUTT against 1110012E06Rik”, inactive: 0.461; with GGAAGAAAGAAUCAAGCUGTT against Tnfsf14, inactive: -1.33. In the case of GGCAAGACAUCAGCUAGUATT against Pcdhgc5 it was inactive: -1.07; in that of GGUUCUACAGAUGGUGUCUTT against Tnfrsf23, inactive: -1.86. For the sequence “GCAGAGAAUCGGACUUUCCTT against 1700020O03Rik”, the z-score was inactive: -0.674.

Consider GGUGUUGGAUGGGAUCCCUTT against Rpl13a, for which the z-score was inactive: -2.67. CUGAUCCUUCAAUUAACAUTT against Olfr202: the z-score is inactive: -0.835. With GGAAUGAAAUCAAACUUGATT against Amac the figure was inactive: 0.436; with GGCAAUAAAGUGUAUUGGCTT against Cd3e, inactive: -0.0274; with “GGCUUGGAAGGAUUAGAAGTT against 4930418G15Rik”, inactive: -0.344. As to GGACUUUUCUGAUGAAACATT against Map3k4, the z-score is inactive: -1.32. Take GGCCUACGUGCUAAACAUCTT against Atp1b1: the z-score is inactive: -0.147. As for GGCAUAUGAUGAUAAGUAATT against P2ry14, the z-score is inactive: -0.412. As for GGUGUGGUGGGUUUCUCAUTT against Mcpt2, the z-score was inactive: 0.551. As for GCAAUCUUUUAUACGUGCCTT against Cklfsf1, the z-score is inactive: 0.0475. On to GAGCAUAGAAACCAUGCACTT against Mte1, for which the z-score is inactive: 0.914. With CCCGUCUGCAUGCUGAAAATT against MGC65558, the z-score was inactive: 1.27. For the sequence GGUCAUUAAGGACUCGAAGTT against Gfap, the z-score was inactive: 1.48. In the case of “CGGUGUCGAAGGUUUGGAUTT against 2810484M10Rik” it was inactive: 0.434. With “GCGACCAGCCUGUUGUUGUTT against 7420416P09Rik”, the z-score is inactive: 0.0266. In the case of CCCUUUGCAUUCCUACUGATT against LOC433332 it was inactive: -0.382; in that of CCUUCCUAUGUGAUAACCGTT against Rnh2, inactive: 0.179. In the case of GGAGAAUAACAAGAUAGUCTT against Pcdhgb8 it was inactive: -0.157; in that of GGCCUUUGAGAAGAACAUUTT against Copz1, inactive: -2.47. In the case of “GGAGAUGAUUUUGAACUUCTT against 1300010M03Rik”, the z-score was inactive: 0.371. With GCUUGCUCCGGUAACAGCATT against Gata6 the figure was inactive: -0.205. With GGUGCUCAUCGACUGGAUCTT against Parva the figure was inactive: -0.356; with GUCUUAUACACGUGUGGACTT against Cklf, inactive: -1.22; with CCCAAGUGAAAGUAAUGUCTT against Tardbp, inactive: -0.711. Turning to GCUUAAAGAACUCUAUUCATT against Oaz3, the z-score was inactive: 0.768. In the case of CCGAAGCAUUUUCCCAUCUTT against Gm963 it was inactive: -0.759. For the sequence GGGUGUACAGAGGAUCCGATT against Atp2a3, the z-score is inactive: 0.856.

Consider “GGAGGCCUAUUUAAUGGAGTT against 1700094E07Rik”, for which the z-score was inactive: 0.0365. On to GCCGAGUGAUAACAGUAGATT against Ndufa10, for which the z-score was inactive: 0.352.

Consider GGAUCUGUACACAGUUAGUTT against Olfr1123, for which the z-score is inactive: 0.15. With GGAUUAUCACUGCCUCUUATT against Olfr1446, the z-score is inactive: -0.65. In the case of GGUGGUCAAGAUCUUGGUGTT against Mcoln1, the z-score was inactive: 1.56.

As to CGUUUUCCACAAAGCAAAATT against Olfr1465, the z-score was inactive: 0.0226. In the case of GCUGUGAAGACGGACAAUATT against Pelo it was inactive: -2.45; in that of “GGAUUAAAGGCCAUAAGGATT against 6430604K15Rik”, inactive: 0.36; in that of “CCAUCCUUCCGAAAGACGATT against 9230112J07Rik”, inactive: -1.34. In the case of GUCCCUCUUUCUAUGGAGGTT against AY026312 it was inactive: 1.78; in that of GGGUGACAGGGCAUGAGAATT against H2afy2, inactive: 0.15. With GGCAGAUGUCUGAUUUGGUTT against Zfp553 the figure was inactive: -1.15. For GCCUGUUCAUCGGUUUUAUTT against V1rd3, the z-score is inactive: -0.0378. In the case of CCUUUGCCUUCAGUUUUAUTT against MGC91106 it was inactive: 0.348.

With “AUGCGUUUGUCAUGAAUUUTT against C630023L15Rik”, the z-score is inactive: 0.396. For the sequence GGUGGUGAGCAUCUACUAUTT against Alox5, the z-score is inactive: -0.497.

Values taken from PubChem BioAssay AID1347423 (Functional Genomics Laboratory (NCATS/FGL), 2020).
